Data as given in publication PMC5717335.
Results are given in words; binding and its absence hold for the method and conditions named. Binding seen in cells or lysates may run through a third protein. Some binding calls cover weakened binding; strength is not graded here.

Target: Bod1-GST (human), Q96IK1
Assay: pull-down; purified Bod1-GST on Sepharose beads incubated with mitotic HeLa cell lysates; immunoblot for Ndc80, Nuf2 and Spc24; only the target purified
Conditions: remark: other sources report otherwise

B1: Ndc80 (Nuclear division cycle protein 80), O14777 1-642 (protein)
chain: MKRSSVSSGGAGRLSMQELRSQDVNKQGLYTPQTKEKPTFGKLSINKPTSERKVSLFGKRTSGHGSRNSQLGIFSSSEKIKDPRPLNDKAFIQQCIRQLCEFLTENGYAHNVSMKSLQAPSVKDFLKIFTFLYGFLCPSYELPDTKFEEEVPRIFKDLGYPFALSKSSMYTVGAPHTWPHIVAALVWLIDCIKIHTAMKESSPLFDDGQPWGEETEDGIMHNKLFLDYTIKCYESFMSGADSFDEMNAELQSKLKDLFNVDAFKLESLEAKNRALNEQIARLEQEREKEPNRLESLRKLKASLQGDVQKYQAYMSNLESHSAILDQKLNGLNEEIARVELECETIKQENTRLQNIIDNQKYSVADIERINHERNELQQTINKLTKDLEAEQQKLWNEELKYARGKEAIETQLAEYHKLARKLKLIPKGAENSKGYDFEIKFNPEAGANCLVKYRAQVYVPLKELLNETEEEINKALNKKMGLEDTLEQLNAMITESKRSVRTLKEEVQKLDDLYQQKIKEAEEEDEKCASELESLEKHKHLLESTVNQGLSEAMNELDAVQREYQLVVQTTTEERRKVGNNLQRLLEMVATHVGSVEKHLEEQIAKVDREYEECMSEDLSENIKEIRDKYEKKATLIKSSEE
binding: binds
